No constants are given. Whether binding was seen depends on the method and setting. In cells and extracts the contact can be indirect. Some entries that bind do so weakly or less than the wild type. For part of these data: Tags and fused reporters may be left off the sequences shown.

The source of these data is paper PMC12709188.

What all share (test): co-IP; FLAG pull-down: M. smegmatis lysates (2–4 mg protein; exponential and stationary phase; for RNAP-FLAG also after crsL knock-down) with M2 anti-FLAG resin 16–18 h at 4°C in 20 mM Tris–HCl pH 7.9, 150 mM KCl, 1 mM MgCl2; SDS–PAGE, silver stain, bands identified by MALDI-FTICR MS and/or western blot
(In general: In western blotting, separated proteins are transferred to a membrane and probed.)

Experiment [1] has as its target T1, CarD–gFLAG (FLAG-tag sequence inserted into the M. smegmatis genome at the carD locus) (M. smegmatis) (UniProt A0R561).
T1 sequence: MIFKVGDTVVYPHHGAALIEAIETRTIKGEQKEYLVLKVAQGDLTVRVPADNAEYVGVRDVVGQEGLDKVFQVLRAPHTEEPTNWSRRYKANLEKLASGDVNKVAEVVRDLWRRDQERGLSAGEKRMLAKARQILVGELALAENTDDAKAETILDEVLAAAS

In experiment [2] the target is RNAP with endogenously FLAG-tagged β′ subunit (M. smegmatis (endogenous in M. smegmatis mc2 155) | M. smegmatis) (UniProt A0QSL8+P60281+A0QS66+A0QWT1).
Experiment [3] concerns the target T2, CarD–FLAG (additional copy of FLAG-tagged CarD under an ATc-inducible promoter) (M. smegmatis) (UniProt A0R561).
T2 sequence: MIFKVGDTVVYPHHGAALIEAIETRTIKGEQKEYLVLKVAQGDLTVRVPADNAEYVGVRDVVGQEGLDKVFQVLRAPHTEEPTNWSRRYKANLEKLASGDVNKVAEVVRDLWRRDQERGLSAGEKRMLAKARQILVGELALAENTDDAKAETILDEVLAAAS

B1: alternative σ factor σ^B (protein, UniProt A0QVZ5 1-319)
chain: MANATTSRVDTDLDAQSPAADLVRVYLNGIGKTALLNAADEVELAKRIEAGLYAQHLLDTKKRLGEARKRDLQAVVRDGEAARRHLLEANLRLVVSLAKRYTGRGMPLLDLIQEGNLGLIRAMEKFDYTKGFKFSTYATWWIRQAITRGMADQSRTIRLPVHLVEQVNKLARIKREMHQNLGREATDEELAEESGIPVEKINDLLEHSRDPVSLDMPVGTDEEAPLGDFIEDSEAMSAENAVISELLHTDIRYVLATLDEREQQVIRLRFGLDDGQPRTLDQIGKLFGLSRERVRQIEREVMAKLRNGERADRLRSYAS
For B1, the binding entry in experiment [1] is given as “binds”.

B2: CarD (protein, UniProt A0R561 1-162)
chain: MIFKVGDTVVYPHHGAALIEAIETRTIKGEQKEYLVLKVAQGDLTVRVPADNAEYVGVRDVVGQEGLDKVFQVLRAPHTEEPTNWSRRYKANLEKLASGDVNKVAEVVRDLWRRDQERGLSAGEKRMLAKARQILVGELALAENTDDAKAETILDEVLAAAS
With B2, the binding entry in experiment [2] is recorded as “binds”.

B3: RbpA (protein, UniProt A0QZ11 1-114)
chain: MADRVLRGSRLGAVSYETDRNHDLAPRQVARYRTDNGEEFDVPFADDAEIPGTWLCRNGLEGTLIEGDVPEPKKVKPPRTHWDMLLERRSVEELEELLKERLDLIKAKRRGTGS
Take B3: the binding entry in experiment [3] is “binds”.
